Data from publication PMC5564613.
No constants are given. Whether binding was seen depends on the method and setting. Binding seen in cells or lysates may run through a third protein.

Sequences of proteins named here, by UniProt entry; tags and fusion partners are left off. A change or cut given only in a name is not applied to a line headed by its entry.
UniProt O43791: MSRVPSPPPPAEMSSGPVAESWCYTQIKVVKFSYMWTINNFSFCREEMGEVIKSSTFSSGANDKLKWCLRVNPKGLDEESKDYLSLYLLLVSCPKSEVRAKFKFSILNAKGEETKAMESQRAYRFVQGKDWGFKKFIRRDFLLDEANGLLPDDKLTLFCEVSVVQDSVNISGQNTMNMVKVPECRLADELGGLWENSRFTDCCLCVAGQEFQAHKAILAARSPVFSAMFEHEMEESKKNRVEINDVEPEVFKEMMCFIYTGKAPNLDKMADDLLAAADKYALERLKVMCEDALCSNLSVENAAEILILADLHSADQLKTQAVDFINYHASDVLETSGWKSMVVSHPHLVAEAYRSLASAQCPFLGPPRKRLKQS
UniProt Q9UBN7: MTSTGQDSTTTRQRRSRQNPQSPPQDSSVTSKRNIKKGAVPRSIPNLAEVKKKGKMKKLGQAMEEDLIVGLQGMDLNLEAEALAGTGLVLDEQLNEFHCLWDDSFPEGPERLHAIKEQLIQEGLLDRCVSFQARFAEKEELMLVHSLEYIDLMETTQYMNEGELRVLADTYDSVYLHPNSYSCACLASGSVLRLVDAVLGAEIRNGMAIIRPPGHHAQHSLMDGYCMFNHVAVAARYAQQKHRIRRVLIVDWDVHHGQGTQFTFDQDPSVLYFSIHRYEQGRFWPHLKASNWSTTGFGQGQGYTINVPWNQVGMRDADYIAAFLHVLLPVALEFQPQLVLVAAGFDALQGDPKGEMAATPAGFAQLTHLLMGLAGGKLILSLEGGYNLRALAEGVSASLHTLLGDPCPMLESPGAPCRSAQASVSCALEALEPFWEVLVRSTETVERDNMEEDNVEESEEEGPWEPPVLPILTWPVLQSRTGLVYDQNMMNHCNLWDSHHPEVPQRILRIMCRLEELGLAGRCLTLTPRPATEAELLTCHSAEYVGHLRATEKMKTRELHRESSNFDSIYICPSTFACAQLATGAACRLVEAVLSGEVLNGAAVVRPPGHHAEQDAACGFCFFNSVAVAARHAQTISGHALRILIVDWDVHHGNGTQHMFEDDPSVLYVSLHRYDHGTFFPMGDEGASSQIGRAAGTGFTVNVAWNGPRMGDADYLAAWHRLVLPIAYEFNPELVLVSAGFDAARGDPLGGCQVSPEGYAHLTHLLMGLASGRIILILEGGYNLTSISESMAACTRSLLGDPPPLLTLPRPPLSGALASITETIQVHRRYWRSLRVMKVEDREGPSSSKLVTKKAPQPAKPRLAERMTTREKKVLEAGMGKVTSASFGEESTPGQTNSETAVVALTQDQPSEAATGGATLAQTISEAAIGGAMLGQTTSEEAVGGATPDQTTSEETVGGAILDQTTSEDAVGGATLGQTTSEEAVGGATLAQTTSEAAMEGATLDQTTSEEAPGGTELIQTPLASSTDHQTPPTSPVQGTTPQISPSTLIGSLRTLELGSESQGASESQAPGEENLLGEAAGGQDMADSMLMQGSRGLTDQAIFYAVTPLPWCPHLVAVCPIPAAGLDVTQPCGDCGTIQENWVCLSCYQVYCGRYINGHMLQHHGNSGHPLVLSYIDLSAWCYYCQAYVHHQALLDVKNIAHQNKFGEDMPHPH

Molecular target: GST-SPOP (pGEX-4T-1-SPOP) (human) (UniProt O43791)
Assay: pull-down; GST pull-down from lysates of 293T cells transfected with HDAC6 constructs, treated with 10 μM MG132 for 12 hours; by the methods 1 mg lysate with 1 μg bacterial purified GST fused protein for 4 hours in the cold room, washed with NETN buffer; immunoblot; only the target purified

binding: no binding
Substance: HDAC6 with deletion of degron 2 (ΔD2) (from UniProt Q9UBN7)
